# Results as given in patent US7381728B2, “Piperazine derivatives useful for the treatment of gastrointestinal disorders” (Glaxo Group Limited, priority 2004, dated 2008).
# By UniProt entry, the sequences of proteins in these tests, tags left out.
# UniProt Q92847, whole entry: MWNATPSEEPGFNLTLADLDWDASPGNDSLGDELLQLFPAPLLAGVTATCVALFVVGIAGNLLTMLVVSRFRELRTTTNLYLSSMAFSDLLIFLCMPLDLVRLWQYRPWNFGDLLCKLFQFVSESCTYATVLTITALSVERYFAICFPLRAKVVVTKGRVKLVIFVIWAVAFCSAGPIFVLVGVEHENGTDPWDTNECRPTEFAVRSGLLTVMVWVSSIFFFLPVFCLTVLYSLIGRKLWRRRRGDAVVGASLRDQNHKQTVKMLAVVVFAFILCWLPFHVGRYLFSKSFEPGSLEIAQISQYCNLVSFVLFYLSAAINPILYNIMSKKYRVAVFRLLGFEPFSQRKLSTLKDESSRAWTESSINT
# pEC50: −log10 of the molar value. Some entries share one result that the patent states for a list of compounds.
# Key:
# Ghrelin Receptor GHS-R [1] = target: T1, Ghrelin Receptor GHS-R (Homo sapiens, UniProt Q92847); assay: GHS-R GTPγS functional agonist assay; format: biochemical; set-up: The open reading frame of GHS-R was transferred from pCDN into pFastBacmam vector; expressed in transfected cells; host or cells: Membranes of HEK293T cells (Lipofectamine, pCDNA3) or of HEK293F cells (BacMam co-transduction with rat Gαo); details: membranes of HEK293 cells transiently expressing GHS-R (protocols I and II); [35S]GTPγS SPA; read-out: activity in the GHS-R GTPγS functional agonist assays
# Ghrelin Receptor GHS-R [2] = target: T1, Ghrelin Receptor GHS-R; assay: GHSR Agonist BACMAM FLIPR Assay; format: cell-based; set-up: The open reading frame of GHS-R was transferred from pCDN into pFastBacmam vector; expressed in transfected cells; host or cells: HEK MSR II cells or U2OS cells transduced with human GHSR BacMam virus; details: HEK MSR II or U2OS cells transduced with human GHSR BACMAM virus; Fluo 4 calcium fluorescence
structure (smiles),measurement,setting,value
"COc1ccc(N2C[C@@H](C)N[C@@H](C)C2)cc1NS(=O)(=O)c1c(Cl)cc(Br)cc1Cl [Example 256, 4-Bromo-2,6-dichloro-N-[5-(cis-3,5-dimethyl-1-piperazinyl)-2-(methyloxy)phenyl]benzenesulfonamide]",pEC50,Ghrelin Receptor GHS-R [1],> 6.00
same,pEC50,Ghrelin Receptor GHS-R [2],> 6.00
"COc1ccc(NS(=O)(=O)c2ccc(-c3ccccc3)cc2)cc1N1C[C@@H](C)N[C@@H](C)C1 [Example 48, N-[3-(cis-3,5-Dimethyl-1-piperazinyl)-4-(methyloxy)phenyl]-4-biphenylsulfonamide]",pEC50,Ghrelin Receptor GHS-R [1],> 6.00
same,pEC50,Ghrelin Receptor GHS-R [2],> 6.00
"COc1ccc(N2C[C@@H](C)N[C@@H](C)C2)cc1NS(=O)(=O)c1ccc(-c2ccc(F)cc2)s1 [Example 206, N-[5-(cis-3,5-Dimethyl-1-piperazinyl)-2-(methyloxy)phenyl]-5-(4-fluorophenyl)-2-thiophenesulfonamide]",pEC50,Ghrelin Receptor GHS-R [1],> 6.00
same,pEC50,Ghrelin Receptor GHS-R [2],> 6.00
"COc1ccc(N2C[C@@H](C)N[C@@H](C)C2)cc1NS(=O)(=O)c1ccc(Br)s1 [Example 122, 5-Bromo-N-[5-(cis-3,5-dimethyl-1-piperazinyl)-2-(methyloxy)phenyl]-2-thiophenesulfonamide]",pEC50,Ghrelin Receptor GHS-R [1],> 6.00
same,pEC50,Ghrelin Receptor GHS-R [2],> 6.00
"COc1ccc(N2C[C@@H](C)N[C@@H](C)C2)cc1NS(=O)(=O)c1ccc(-c2cccs2)s1 [Example 130, N-[5-(cis-3,5-Dimethyl-1-piperazinyl)-2-(methyloxy)phenyl]-2,2′-bithiophene-5-sulfonamide]",pEC50,Ghrelin Receptor GHS-R [1],> 6.00
same,pEC50,Ghrelin Receptor GHS-R [2],> 6.00
"COc1ccc(N2C[C@@H](C)N[C@@H](C)C2)cc1NS(=O)(=O)c1ccccc1Br [Example 42, 2-Bromo-N-[5-(cis-3,5-dimethyl-1-piperazinyl)-2-(methyloxy)phenyl]benzenesulfonamide]",pEC50,Ghrelin Receptor GHS-R [1],> 6.00
same,pEC50,Ghrelin Receptor GHS-R [2],> 6.00
"COc1ccc(NS(=O)(=O)c2ccc(-c3ccc(C)cc3)cc2)cc1N1C[C@@H](C)N[C@@H](C)C1 [Example 151, N-[3-(cis-3,5-Dimethyl-1-piperazinyl)-4-(methyloxy)phenyl]-4′-methyl-4-biphenylsulfonamide]",pEC50,Ghrelin Receptor GHS-R [1],> 6.00
same,pEC50,Ghrelin Receptor GHS-R [2],> 6.00
"COc1ccc(N2C[C@@H](C)N[C@@H](C)C2)cc1NS(=O)(=O)c1ccc(-c2ccc(F)cc2F)s1 [Example 198, 5-(2,4-Difluorophenyl)-N-[5-(cis-3,5-dimethyl-1-piperazinyl)-2-(methyloxy)phenyl]-2-thiophenesulfonamide]",pEC50,Ghrelin Receptor GHS-R [1],> 6.00
same,pEC50,Ghrelin Receptor GHS-R [2],> 6.00
"C[C@@H]1CN(c2cccc(NS(=O)(=O)c3ccc(-n4cccn4)cc3)c2)C[C@H](C)N1 [Example 46, N-[3-(cis-3,5-Dimethyl-1-piperazinyl)phenyl]-4-(1H-pyrazol-1-yl)benzenesulfonamide]",pEC50,Ghrelin Receptor GHS-R [1],> 6.00
same,pEC50,Ghrelin Receptor GHS-R [2],> 6.00
"C[C@@H]1CN(c2cccc(NS(=O)(=O)c3cc4ccccc4s3)c2)C[C@H](C)N1 [Example 67, N-[3-(cis-3,5-Dimethyl-1-piperazinyl)phenyl]-1-benzothiophene-2-sulfonamide]",pEC50,Ghrelin Receptor GHS-R [1],> 6.00
same,pEC50,Ghrelin Receptor GHS-R [2],> 6.00
"COc1ccc(NS(=O)(=O)c2c(C)noc2C)cc1N1C[C@@H](C)N[C@@H](C)C1 [Example 28, N-[3-(cis-3,5-Dimethyl-1-piperazinyl)-4-(methyloxy)phenyl]-3,5-dimethyl-4-isoxazolesulfonamide]",pEC50,Ghrelin Receptor GHS-R [1],> 6.00
same,pEC50,Ghrelin Receptor GHS-R [2],> 6.00
"COc1cc(F)c(N2C[C@@H](C)N[C@@H](C)C2)cc1NS(=O)(=O)c1ccc(-c2cccs2)cc1 [Example 53, N-[5-(cis-3,5-Dimethyl-1-piperazinyl)-4-fluoro-2-(methyloxy)phenyl]-4-(2-thienyl)benzenesulfonamide]",pEC50,Ghrelin Receptor GHS-R [1],> 6.00
same,pEC50,Ghrelin Receptor GHS-R [2],> 6.00
"COc1ccc(N2C[C@@H](C)N[C@@H](C)C2)cc1NS(=O)(=O)c1cc(C)c(-c2ccccc2F)s1 [Example 192, N-[5-(cis-3,5-Dimethyl-1-piperazinyl)-2-(methyloxy)phenyl]-5-(2-fluorophenyl)-4-methyl-2-thiophenesulfonamide]",pEC50,Ghrelin Receptor GHS-R [1],> 6.00
same,pEC50,Ghrelin Receptor GHS-R [2],> 6.00
"COc1ccc(N2C[C@@H](C)N[C@@H](C)C2)cc1NS(=O)(=O)c1ccc(-c2nccs2)cc1 [Example 268, N-[5-(cis-3,5-Dimethyl-1-piperazinyl)-2-(methyloxy)phenyl]-4-(1,3-thiazol-2-yl)benzenesulfonamide]",pEC50,Ghrelin Receptor GHS-R [1],> 6.00
same,pEC50,Ghrelin Receptor GHS-R [2],> 6.00
"COc1ccc(N2C[C@@H](C)N[C@@H](C)C2)cc1NS(=O)(=O)c1ccc(-c2cccc(F)c2F)cc1 [Example 188, N-[5-(cis-3,5-Dimethyl-1-piperazinyl)-2-(methyloxy)phenyl]-2′,3′-difluoro-4-biphenylsulfonamide]",pEC50,Ghrelin Receptor GHS-R [1],> 6.00
same,pEC50,Ghrelin Receptor GHS-R [2],> 6.00
"C[C@@H]1CN(c2cccc(NS(=O)(=O)c3ccc(-c4cccs4)cc3)c2)C[C@H](C)N1 [Example 44, N-[3-(cis-3,5-Dimethyl-1-piperazinyl)phenyl]-4-(2-thienyl)benzenesulfonamide]",pEC50,Ghrelin Receptor GHS-R [1],> 6.00
same,pEC50,Ghrelin Receptor GHS-R [2],> 6.00
"COc1ccc(N2C[C@@H](C)N[C@@H](C)C2)cc1NS(=O)(=O)c1ccc(-c2ccc(C)s2)cc1Cl [Example 279, 2-Chloro-N-[5-(cis-3,5-dimethyl-1-piperazinyl)-2-(methyloxy)phenyl]-4-(5-methyl-2-thienyl)benzenesulfonamide]",pEC50,Ghrelin Receptor GHS-R [1],> 6.00
same,pEC50,Ghrelin Receptor GHS-R [2],> 6.00
"C[C@@H]1CN(c2ccc(O)c(NS(=O)(=O)c3ccc(-c4ccco4)cc3)c2)C[C@H](C)N1 [Example 314, N-[5-(cis-3,5-Dimethyl-1-piperazinyl)-2-hydroxyphenyl]-4-(2-furanyl)benzenesulfonamide]",pEC50,Ghrelin Receptor GHS-R [1],> 6.00
same,pEC50,Ghrelin Receptor GHS-R [2],> 6.00
"CCOc1ccc(NS(=O)(=O)c2ccc(I)cc2)cc1N1C[C@@H](C)N[C@@H](C)C1 [Example 94, N-[3-(cis-3,5-Dimethyl-1-piperazinyl)-4-(ethyloxy)phenyl]-4-iodobenzenesulfonamide]",pEC50,Ghrelin Receptor GHS-R [1],> 6.00
same,pEC50,Ghrelin Receptor GHS-R [2],> 6.00
"COc1ccc(N2C[C@@H](C)N[C@@H](C)C2)cc1NS(=O)(=O)c1ccc(-c2cccn2C)cc1 [Example 269, N-[5-(cis-3,5-Dimethyl-1-piperazinyl)-2-(methyloxy)phenyl]-4-(1-methyl-1H-pyrrol-2-yl)benzenesulfonamide]",pEC50,Ghrelin Receptor GHS-R [1],> 6.00
same,pEC50,Ghrelin Receptor GHS-R [2],> 6.00
"COc1ccc(NS(=O)(=O)c2ccc(N3CCCC3=O)cc2)cc1N1C[C@@H](C)N[C@@H](C)C1 [Example 23, N-[3-(cis-3,5-Dimethyl-1-piperazinyl)-4-(methyloxy)phenyl]-4-(2-oxo-1-pyrrolidinyl)benzenesuffonamide]",pEC50,Ghrelin Receptor GHS-R [1],> 6.00
same,pEC50,Ghrelin Receptor GHS-R [2],> 6.00
"COc1ccc(N2C[C@@H](C)N[C@@H](C)C2)cc1NS(=O)(=O)c1ccc(-c2ccccc2C)s1 [Example 202, N-[5-(cis-3,5-Dimethyl-1-piperazinyl)-2-(methyloxy)phenyl]-5-(2-methylphenyl)-2-thiophenesulfonamide]",pEC50,Ghrelin Receptor GHS-R [1],> 6.00
same,pEC50,Ghrelin Receptor GHS-R [2],> 6.00
"Cc1ccc(N2C[C@@H](C)N[C@@H](C)C2)cc1NS(=O)(=O)c1cccc2ccccc12 [Example 70, N-[5-(cis-3,5-Dimethyl-1-piperazinyl)-2-methylphenyl]-1-naphthalenesulfonamide]",pEC50,Ghrelin Receptor GHS-R [1],> 6.00
same,pEC50,Ghrelin Receptor GHS-R [2],> 6.00
"COc1ccc(NS(=O)(=O)c2cc3cccnc3s2)cc1N1C[C@@H](C)N[C@@H](C)C1 [Example 10, N-[3-(cis-3,5-Dimethyl-1-piperazinyl)-4-(methyloxy)phenyl]thieno[2,3-b]pyridine-2-sulfonamide]",pEC50,Ghrelin Receptor GHS-R [1],> 6.00
same,pEC50,Ghrelin Receptor GHS-R [2],> 6.00
"COc1ccc(N2C[C@@H](C)N[C@@H](C)C2)cc1NS(=O)(=O)c1ccc(-c2ccc(C)o2)cn1 [Example 276, N-[5-(cis-3,5-Dimethyl-1-piperazinyl)-2-(methyloxy)phenyl]-5-(5-methyl-2-furanyl)-2-pyridinesulfonamide]",pEC50,Ghrelin Receptor GHS-R [1],> 6.00
same,pEC50,Ghrelin Receptor GHS-R [2],> 6.00
"COc1ccc(N2C[C@@H](C)N[C@@H](C)C2)cc1NS(=O)(=O)c1ccc(-c2c(C)cccc2C)s1 [Example 203, 5-(2,6-Dimethylphenyl)-N-[5-(cis-3,5-dimethyl-1-piperazinyl)-2-(methyloxy)phenyl]-2-thiophenesulfonamide]",pEC50,Ghrelin Receptor GHS-R [1],> 6.00
same,pEC50,Ghrelin Receptor GHS-R [2],> 6.00
"COc1ccc(N2C[C@@H](C)N[C@@H](C)C2)cc1NS(=O)(=O)c1ccc(-c2cccc(F)c2F)s1 [Example 240, 5-(2,3-Difluorophenyl)-N-[5-(cis-3,5-dimethyl-1-piperazinyl)-2-(methyloxy)phenyl]-2-thiophenesulfonamide]",pEC50,Ghrelin Receptor GHS-R [1],> 6.00
same,pEC50,Ghrelin Receptor GHS-R [2],> 6.00
"C[C@@H]1CN(c2ccc(F)c(NS(=O)(=O)c3ccc(-c4cccs4)cc3)c2)C[C@H](C)N1 [Example 228, N-[5-(cis-3,5-Dimethyl-1-piperazinyl)-2-fluorophenyl]-4-(2-thienyl)benzenesulfonamide]",pEC50,Ghrelin Receptor GHS-R [1],> 6.00
same,pEC50,Ghrelin Receptor GHS-R [2],> 6.00
"C[C@@H]1CN(c2cc(NS(=O)(=O)c3ccc(-c4cccs4)cc3)ccc2C#N)C[C@H](C)N1 [Example 39, N-[4-Cyano-3-(cis-3,5-dimethyl-1-piperazinyl)phenyl]-4-(2-thienyl)benzenesulfonamide]",pEC50,Ghrelin Receptor GHS-R [1],> 6.00
same,pEC50,Ghrelin Receptor GHS-R [2],> 6.00
"COc1ccc(N2C[C@@H](C)N[C@@H](C)C2)cc1NS(=O)(=O)c1ccc(-c2cccs2)cc1C [Example 155, N-[5-(cis-3,5-Dimethyl-1-piperazinyl)-2-(methyloxy)phenyl]-2-methyl-4-(2-thienyl)benzenesulfonamide]",pEC50,Ghrelin Receptor GHS-R [1],> 6.00
same,pEC50,Ghrelin Receptor GHS-R [2],> 6.00
